Measured values: patent US8784911B2, “Compositions for treatment and prevention of diabetic complications using Osteomeles schwerinae” (Korea Institute of Oriental Medicine, priority 2009, dated 2014)
At least one compound was matched to its structure with a doubt left.

How the values were obtained:
aldose reductase = biological target: T1, aldose reductase (Rattus norvegicus, UniProt P07943); assay: In vitro inhibitory effect on aldose reductase activity; assay type: biochemical, SD rat; conditions: compounds isolated from Osteomeles schwerinae extract
T1 construct: To obtain natural aldose reductase from eyeballs of SD rat; from tissue; host or cells: lens of Sprague-Dawley rat (homogenate supernatant)

[1] = test system: advanced glycation endproduct generation (bovine serum albumin with fructose and glucose); assay: In vitro inhibitory effect on advanced glycation endproduct generation (BSA + fructose/glucose, fluorescence); assay type: biochemical; conditions: compounds isolated from Osteomeles schwerinae extract
Description: Inhibitory effect of Osteomeles schwerinae small twig/leaf extract, fractions thereof obtained from each of hexane layer, ethyl acetate layer, butanol layer and water layer of the extract, and Osteomeles schwerinae seed extract on advanced glycation endproduct generation was investigated in vitro. Bovine serum albumin (BSA, Sigma, USA) was used as a protein source. BSA was added to 50 mM phosphate buffer (pH 7.4) at the concentration of 10 mg/ml. As a sugar source, the mixed solution of 0.2 M fructose and 0.2 M glucose was used. The mixed solution of fructose and glucose was added to the BSA solution. Osteomeles schwerinae small twig/leaf extract was prepared at different concentrations of 5 μg/ml, 10 μg/ml and 25 μg/ml. […] 14 or 28 days later, the content of advanced glycation endproducts generated in each culture solution was measured and compared. […] The amount of AGEs having the said properties was measured with microplate reader (Excitation: 350 nm, Emission: 450 nm) to analyze the inhibitory effect on the generation of AGEs (Vinson, J. A. et al., J. Nutr. Biochem., 7: 659-663, 1996).
Inhibitory rate of generation was calculated by the following formula. Inhibitory rate of generation(%)=100−(fluorescence intensity of experimental group sample−fluorescence intensity of empty sample)/(fluorescence intensity of control group sample−fluorescence intensity of control group empty sample)×100 […]

With O=c1c(O[C@@H]2O[C@H](CO)[C@H](O)[C@H](O)[C@H]2O)c(-c2ccc(O)c(O)c2)oc2cc(O)cc(O)c12 [hyperoside] the “inhibition of aldose reductase activity” value (aldose reductase) was “confirmed to inhibit” and the “inhibition of advanced glycation endproduct generation” value [1] was “confirmed to inhibit”.
